Measurements reported in PubChem BioAssay AID1259308 (NCATS, 2017).

Purpose: 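Knock-downs that increase output of a recombinant reporter protein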 (primary screen)
System: human HEK293 embryonic kidney cells stably expressing firefly luciferase (HEK-CMV-Luc2-Hygro)
Reagents: single siRNA against human genes, 0.8 pmol siRNA per well
Time to read-out: 72 h
Detection: 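Reporter luminescence and viable-cell signal on separate replicate plates, given as percent of non-targeting control and median/MAD z-scores, plus per-cell luciferase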
Reading the numbers: total luciferase, z-score: higher = more reporter protein produced
Rule for the call: 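An siRNA counts as active if its total luciferase robust z-score exceeds 3; genes with two or more such siRNAs out of three were retested with fresh siRNAs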
Calls: active = raised luciferase; inactive = no rise
This is one part, drawn at random, of about 59,000 reagents tested. Of all reagents, about 1,510 (2.6%) got an active call. 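Calls use total luciferase alone and ignore viability, so some active siRNAs may act by altering cell number.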 Entries without a mark were called inactive. The numbers tell different reagents against one gene apart. Further read-outs or replicates are left out here.

LRRC40 #1
- total luciferase, z-score: 1.2

LRRC40 #2
- total luciferase, z-score: -0.196

LRRC40 #3
- total luciferase, z-score: 2.34

SPEN-AS1 #1
- total luciferase, z-score: 1.01

SPEN-AS1 #2
- total luciferase, z-score: 0.714

SPEN-AS1 #3
- total luciferase, z-score: -0.262

SPEN-AS1 #4
- total luciferase, z-score: -0.609

SPEN-AS1 #5
- total luciferase, z-score: -1.73

SPEN-AS1 #6
- total luciferase, z-score: 0.336

METAP1 #1
- total luciferase, z-score: 0.703

METAP1 #2
- total luciferase, z-score: 1.39

METAP1 #3
- total luciferase, z-score: -1.16

SLC2A10 #1
- total luciferase, z-score: 0.719

SLC2A10 #2
- total luciferase, z-score: 0.789

SLC2A10 #3
- total luciferase, z-score: -0.336

LOC401442 #1
- total luciferase, z-score: 0.342

LOC401442 #2
- total luciferase, z-score: 0.523

LOC401442 #3
- total luciferase, z-score: -1.6

GLYR1 #1
- total luciferase, z-score: 0.293

GLYR1 #2
- total luciferase, z-score: -0.0426

GLYR1 #3
- total luciferase, z-score: 0.853

DHX16 #1
- total luciferase, z-score: -0.722

DHX16 #2
- total luciferase, z-score: 1.03

DHX16 #3
- total luciferase, z-score: 0.134

WIPI1 #1
- total luciferase, z-score: 0.274

WIPI1 #2
- total luciferase, z-score: -1.17

WIPI1 #3
- total luciferase, z-score: -0.266

TRPC6 #1
- total luciferase, z-score: -0.582

TRPC6 #2
- total luciferase, z-score: 0.644

TRPC6 #3
- total luciferase, z-score: 0.744

OLIG2 #1
- total luciferase, z-score: -0.487

OLIG2 #2
- total luciferase, z-score: 0.103

OLIG2 #3
- total luciferase, z-score: -0.429

CTNNBL1 #1
- total luciferase, z-score: -1.08

CTNNBL1 #2
- total luciferase, z-score: 1.97

CTNNBL1 #3
- total luciferase, z-score: 2.65

SYCE1 #1
- total luciferase, z-score: 1.17

SYCE1 #2
- total luciferase, z-score: -0.184

SYCE1 #3
- total luciferase, z-score: -0.0293

TMPRSS4 #1
- total luciferase, z-score: -0.272

TMPRSS4 #2
- total luciferase, z-score: -0.868

TMPRSS4 #3
- total luciferase, z-score: -0.318

4 entries from above, reformatted.
| target | siRNA no. | total luciferase, z-score |
| --- | --- | --- |
| LOC401442 | 2 | 0.523 |
| LOC401442 | 3 | -1.6 |
| GLYR1 | 1 | 0.293 |
| GLYR1 | 2 | -0.0426 |
